Earlier results, collected in US20210315844A1, “ENDOXIFEN FOR THE TREATMENT OF BIPOLAR I DISORDER” (Jina Pharmaceuticals, Inc., priority 2020, published 2021).
At least one compound was matched to its structure with a doubt left.

Test system: individuals with bipolar disorder
Conditions: treated vs untreated periods; follow-up 2005 to 2013; around 51000 individuals; cited from earlier work

Structure (SMILES): CCCC(CCC)C(=O)O [valproate]
- decrease of incidence rate of suicide-related events during treatment: not
